Data taken from publication PMC11277477.
Results are given in words; binding and its absence hold for the method and conditions named. In cells and extracts the contact can be indirect. Here binding means that the protein was enriched with, or labelled near, the bait; the list need not be complete. For some of these results: Tags and fused reporters may be left off the sequences shown.

Chains of the proteins cited; added tags and fusions are not shown. Lines headed by an entry give the natural chain unless they say otherwise; changes in a name come on top.
UniProt C4LU56: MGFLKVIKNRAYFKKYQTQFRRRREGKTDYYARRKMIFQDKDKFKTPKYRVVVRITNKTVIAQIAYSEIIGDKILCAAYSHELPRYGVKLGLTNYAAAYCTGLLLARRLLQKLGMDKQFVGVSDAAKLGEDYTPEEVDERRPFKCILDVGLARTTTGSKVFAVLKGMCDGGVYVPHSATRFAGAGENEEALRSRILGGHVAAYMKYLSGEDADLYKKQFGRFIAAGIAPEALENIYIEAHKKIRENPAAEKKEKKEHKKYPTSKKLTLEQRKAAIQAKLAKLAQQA
UniProt C4M1S6: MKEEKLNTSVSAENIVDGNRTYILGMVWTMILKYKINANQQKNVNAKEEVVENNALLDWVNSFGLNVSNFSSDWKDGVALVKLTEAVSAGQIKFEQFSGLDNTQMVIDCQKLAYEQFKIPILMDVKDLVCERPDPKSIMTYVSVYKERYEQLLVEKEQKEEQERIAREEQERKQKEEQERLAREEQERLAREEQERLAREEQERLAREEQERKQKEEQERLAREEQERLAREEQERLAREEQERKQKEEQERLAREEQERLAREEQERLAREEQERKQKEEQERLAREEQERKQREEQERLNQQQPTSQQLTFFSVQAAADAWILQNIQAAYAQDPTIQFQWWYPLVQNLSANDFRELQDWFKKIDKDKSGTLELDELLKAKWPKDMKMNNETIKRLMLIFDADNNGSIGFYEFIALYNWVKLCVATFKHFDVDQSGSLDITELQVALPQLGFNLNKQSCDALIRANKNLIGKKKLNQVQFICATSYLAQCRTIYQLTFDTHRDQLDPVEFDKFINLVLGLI
UniProt B1N3T3: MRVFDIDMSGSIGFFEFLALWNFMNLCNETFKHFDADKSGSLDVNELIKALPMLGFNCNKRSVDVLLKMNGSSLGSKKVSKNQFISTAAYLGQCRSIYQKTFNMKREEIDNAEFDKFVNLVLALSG
UniProt B1N2F9: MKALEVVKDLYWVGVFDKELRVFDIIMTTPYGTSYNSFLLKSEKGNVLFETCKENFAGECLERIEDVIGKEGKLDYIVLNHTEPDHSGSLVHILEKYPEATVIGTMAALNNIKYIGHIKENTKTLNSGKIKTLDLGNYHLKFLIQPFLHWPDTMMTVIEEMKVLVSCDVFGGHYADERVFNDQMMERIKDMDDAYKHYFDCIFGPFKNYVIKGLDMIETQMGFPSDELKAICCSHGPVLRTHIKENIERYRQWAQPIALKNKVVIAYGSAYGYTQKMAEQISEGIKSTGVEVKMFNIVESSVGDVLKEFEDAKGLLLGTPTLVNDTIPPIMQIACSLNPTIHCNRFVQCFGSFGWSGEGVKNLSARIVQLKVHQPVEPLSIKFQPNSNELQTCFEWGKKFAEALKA
UniProt A0A8U0WPG2: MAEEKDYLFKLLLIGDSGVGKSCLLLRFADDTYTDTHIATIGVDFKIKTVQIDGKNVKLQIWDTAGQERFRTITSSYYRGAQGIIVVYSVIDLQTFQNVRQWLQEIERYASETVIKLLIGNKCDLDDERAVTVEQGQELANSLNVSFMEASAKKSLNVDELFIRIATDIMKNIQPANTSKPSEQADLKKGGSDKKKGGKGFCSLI

Key:
Experiment in all cases: affinity purification with mass spectrometry; GST-tagged bait (or GST control) bound to glutathione-Sepharose (200 μg) incubated with total trophozoite lysate (2 mg), 4 h, 4 °C; SDS-PAGE, silver stain, bands cut, nano UPLC-QToF; hits with reliability above 95%; only the target purified
[1] = biological target: T1, GST-Adh recombinant protein (E. histolytica)
T1 sequence: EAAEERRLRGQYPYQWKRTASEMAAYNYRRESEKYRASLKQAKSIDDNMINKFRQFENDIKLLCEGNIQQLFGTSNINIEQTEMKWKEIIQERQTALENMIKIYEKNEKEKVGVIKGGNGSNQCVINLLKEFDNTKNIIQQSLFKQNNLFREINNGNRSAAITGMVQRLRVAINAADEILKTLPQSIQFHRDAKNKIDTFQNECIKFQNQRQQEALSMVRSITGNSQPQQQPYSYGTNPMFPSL

[2] = biological target: GST-EhADH recombinant protein (E. histolytica)
[3] = biological target: T2, GST-Linker recombinant protein (E. histolytica)
T2 sequence: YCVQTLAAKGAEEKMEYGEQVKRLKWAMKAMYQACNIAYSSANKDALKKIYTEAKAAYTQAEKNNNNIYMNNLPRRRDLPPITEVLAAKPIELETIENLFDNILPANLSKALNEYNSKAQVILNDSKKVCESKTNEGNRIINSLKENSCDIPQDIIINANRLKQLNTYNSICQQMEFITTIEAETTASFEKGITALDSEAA

| Substance | binding [1] | binding [2] | binding [3] |
| --- | --- | --- | --- |
| 60S ribosomal protein L5 (from UniProt C4LU56) | binds |  |  |
| Actinin-like protein (from UniProt C4M1S6) |  | binds |  |
| EhGrainin 2 (from UniProt B1N3T3) |  | binds |  |
| EhHSP70 (EHI_061640) | binds |  |  |
| Flavoprotein type A (from UniProt B1N2F9) (enzyme) | binds |  |  |
| Rab family GTPase (EHI_108610) (from UniProt A0A8U0WPG2 1-205) (enzyme) |  | binds | binds |
